The results in this text go back to patent publication US20220306757A1 (HANGZHOU SUMGEN BIOTECH, published 2022).

Chains of the proteins cited; added tags and fusions are not shown.
UniProt Q02223: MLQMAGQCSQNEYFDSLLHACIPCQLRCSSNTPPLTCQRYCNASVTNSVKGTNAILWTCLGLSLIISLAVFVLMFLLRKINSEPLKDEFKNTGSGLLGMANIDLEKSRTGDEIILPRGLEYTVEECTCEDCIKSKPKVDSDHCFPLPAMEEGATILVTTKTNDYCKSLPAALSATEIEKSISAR

No constants are given. Whether binding was seen depends on the method and setting. Some entries that bind do so weakly or less than the wild type.

Test [1] has as its target BCMA on CHOS cells stably expressing BCMA (CHOS-BCMA) (UniProt Q02223). Briefly: flow cytometry on CHOS-BCMA cells, PE anti-human IgG detection. For orientation: A flow cytometer gives signals particle by particle.
For test [2] the target is unchanged. The test can be described thus: flow cytometry on CHOS-BCMA cells, PE mouse anti-human IgG, mean fluorescence intensity.

B1: SG1116 antibody (antibody, human IgG1, V domains shown)
VH: QVQLVQSGPELKKPGETVKISCKASGYTFSRYSMNWVRQAPGKGLEWMGRINTGSGAPIYADDFKGRFTFSVDTSASTAYLVINNLKSEDTASYFCSNDYNYSLDHWGQGTAVTVSS
VL: DIVLTQSPPSLAMSLGKRATISCRASESVTILGSHLIYWYQQKPGQPPTLLIQLASNVQTGVPARFSGSGSRTDFTLTIDPVEEDDVAVYYCLQSRTIPRTFGGGTKLEIK
notes: also called antibody SG1116; SGT116
Regarding B1, the binding result in test [1] and in test [2] was “binds” in each case.
